{"source": "the supplement of paper PMC4604168 (melanoma cell lines)", "note": "The other results are listed elsewhere or left out. Many values rest on one well or one pass, so single values are uncertain.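 Cells were imaged in 1,536-well plates, and nuclei stained with an antibody against cleaved PARP were counted against all DNA-stained nuclei to give the apoptosis fraction. Screening doses were chosen to leave most cells alive, and resting and induced cleaved-PARP levels differ strongly between cell lines.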", "data": [{"system": "MEL-HO", "assay": "cleaved PARP positive nuclei fraction relative to DMSO control; melanoma cells; higher = more apoptosis", "conditions": "library dose: low library concentration; 72 h", "units": {"cleaved PARP positive nuclei fraction": "%"}, "values": [{"smiles": "Cc1cc(Nc2cc(N3CCN(C)CC3)nc(/C=C/c3ccccc3)n2)n[nH]1", "note": "+ C#Cc1cccc(Nc2ncnc3cc(OCCOC)c(OCCOC)cc23)c1 [erlotinib] (first compound 0.04 µM, partner dose 0.8 µM)", "cleaved PARP positive nuclei fraction": 357}, {"smiles": "Nc1ccn([C@@H]2O[C@H](CO)[C@@H](O)C2(F)F)c(=O)n1", "note": "[gemcitabine] + COc1ccc(Cl)c(Nc2nc3ccccc3nc2NS(=O)(=O)c2cccc(NC(=O)C(C)(C)N)c2)c1 [XL147] (first compound 0.0004 µM, partner dose 0.8 µM)", "cleaved PARP positive nuclei fraction": 61.3}, {"smiles": "Cc1cc(Nc2cc(N3CCN(C)CC3)nc(/C=C/c3ccccc3)n2)n[nH]1", "note": "+ CNC(=O)c1cc(Oc2ccc(NC(=O)Nc3ccc(Cl)c(C(F)(F)F)c3)cc2)ccn1 [sorafenib] (first compound 0.04 µM, partner dose 0.4 µM)", "cleaved PARP positive nuclei fraction": 118}, {"smiles": "O=C(O)c1ccc2c(c1)nc(Nc1cccc(Cl)c1)c1ccncc12", "note": "+ Nc1nc(F)nc2c1ncn2[C@@H]1O[C@H](CO)[C@@H](O)[C@@H]1O [fludarabine] (first compound 0.4 µM, partner dose 0.2 µM)", "cleaved PARP positive nuclei fraction": 86.4}, {"smiles": "O=C(O)c1ccc2c(c1)nc(Nc1cccc(Cl)c1)c1ccncc12", "note": "+ Nc1cccc2c1CN(C1CCC(=O)NC1=O)C2=O [lenalidomide] (first compound 0.4 µM, partner dose 1 µM)", "cleaved PARP positive nuclei fraction": 98.7}, {"smiles": "Nc1ncn([C@H]2C[C@H](O)[C@@H](CO)O2)c(=O)n1", "note": "[decitabine] + OCc1c[nH]c2ccccc12 [Indole-3-carbinol] (first compound 0.1 µM, partner dose 0.8 µM)", "cleaved PARP positive nuclei fraction": 188}]}]}
